Measured data: PubChem BioAssay AID504774 (Drosophila RNAi Screening Center, 2011)
The deposit covers about 23,000 reagents; this is a random part of those with a known target gene and a result. 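Values are quantile-normalised luminescence on an arbitrary scale; higher means more cells surviving MMS.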 A plus sign joins genes that one reagent is predicted to hit. Not all columns of the deposit are shown. No sequences are given here.

Test: 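Knock-downs that shift viability of MMS-exposed cells relative to untreated ones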 (primary screen)
Cell system: Drosophila Kc167 cells
Reagent: long dsRNA against Drosophila genes, about 0.25 µg dsRNA per well
Duration: about 6 days: 3 days knock-down, then 3 days with or without MMS
Conditions: methyl methanesulphonate 0.004% (w/v) for 3 days after knock-down
Read-out: 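ATP-dependent luminescence as a measure of live cells in MMS-exposed wells, quantile normalised within each plate, with replicate values also given as a mean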
Direction: mean viability with MMS: higher = more surviving cells after MMS

ng1 (new glue 1) [DRSC18802] → mean viability with MMS = 3.51e6
Aos1 (Activator of SUMO 1) [DRSC14113] → mean viability with MMS = 3.27e6
CG8229 + CG33199 [DRSC05134] → mean viability with MMS = 3.90e6
jv (javelin) [DRSC08831] → mean viability with MMS = 3.47e6
jv (javelin) [DRSC08832] → mean viability with MMS = 3.79e6
CG13438 [DRSC06398] → mean viability with MMS = 3.50e6
CG6739 [DRSC02987] → mean viability with MMS = 3.44e6
CG15631 [DRSC00466] → mean viability with MMS = 3.68e6
CG34281 [DRSC14807] → mean viability with MMS = 3.22e6
CG8299 [DRSC07139] → mean viability with MMS = 3.47e6
CG6928 [DRSC10749] → mean viability with MMS = 3.67e6
Ilp7 (Insulin-like peptide 7) [DRSC17895] → mean viability with MMS = 3.59e6
GstD4 (Glutathione S transferase D4) [DRSC16685] → mean viability with MMS = 4.09e6
CG14852 [DRSC14976] → mean viability with MMS = 3.55e6
